Data as given in PubChem BioAssay AID1259254 (NCATS, 2017).
The deposit covers about 59,000 reagents; this is an unselected part. Over the whole deposit, about 1,550 (2.6%) are marked active. 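G2 share is only a proxy for re-replication; each gene was hit by three separate siRNAs, and active genes were retested.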 Entries without a mark were called inactive. The numbers tell different reagents against one gene apart. Not all columns of the deposit are shown. Not given: the amount of reagent.

- Test: 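Finding genes that stop cells copying their DNA twice in one cycle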 (primary screen)
- Cell system: human HCT116 colorectal cancer cells
- Reagents: single siRNA against human genes
- Timing: 3 days
- Measurement: 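Imaged Hoechst DNA stain sorts each cell into a cycle phase by DNA amount; per plate, G2 fraction set to 0% for non-targeting and 100% for GMNN siRNA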
- Direction: G2 robust z-score: higher = more G2 cells, more excess DNA replication
- Rule for the call: 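Active siRNAs have a G2 robust z of 5 or more median absolute deviations over the median, which in these data means about 38% or higher of GMNN control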

| G2 robust z-score | Gene | reagent |
| --- | --- | --- |
| 0.0982 | PARD6G (GeneID 84552) | 1 |
| 1.56 | PARD6G (GeneID 84552) | 2 |
| -0.649 | PARD6G (GeneID 84552) | 3 |
| -0.101 | KLF6 (GeneID 1316) | 1 |
| 1.95 | KLF6 (GeneID 1316) | 2 |
| 1.21 | KLF6 (GeneID 1316) | 3 |
| 3.5 | YWHAZ (GeneID 7534) | 1 |
| -0.578 | YWHAZ (GeneID 7534) | 2 |
| -0.458 | YWHAZ (GeneID 7534) | 3 |
| -0.209 | CCDC66 (GeneID 285331) | 1 |
| 0.0129 | CCDC66 (GeneID 285331) | 2 |
| -0.32 | CCDC66 (GeneID 285331) | 3 |
| -1.26 | SLC68A1 (GeneID 79847) | 1 |
| 0.526 | SLC68A1 (GeneID 79847) | 2 |
| 1.33 | SLC68A1 (GeneID 79847) | 3 |
| 0.373 | TRIOBP (GeneID 11078) | 1 |
| 0.131 | TRIOBP (GeneID 11078) | 2 |
| 0.197 | TRIOBP (GeneID 11078) | 3 |
| 0.102 | CCDC186 (GeneID 55088) | 1 |
| 3.04 | CCDC186 (GeneID 55088) | 2 |
| -0.508 | CCDC186 (GeneID 55088) | 3 |
| 0.00924 | KDM3B (GeneID 51780) | 1 |
| -0.221 | KDM3B (GeneID 51780) | 2 |
| -0.624 | KDM3B (GeneID 51780) | 3 |
| 1.22 | TYW2 (GeneID 55039) | 1 |
| 1.35 | TYW2 (GeneID 55039) | 2 |
| -0.0616 | TYW2 (GeneID 55039) | 3 |
| -0.796 | FRMD6 (GeneID 122786) | 1 |
| -0.987 | FRMD6 (GeneID 122786) | 2 |
| -0.913 | FRMD6 (GeneID 122786) | 3 |
| 0.674 | ZNF862 (GeneID 643641) | 1 |
| 0.136 | ZNF862 (GeneID 643641) | 2 |
| -0.475 | ZNF862 (GeneID 643641) | 3 |
| 0.761 | ZNF962P (GeneID 729501) | 1 |
| 0.228 | ZNF962P (GeneID 729501) | 2 |
| 1.97 | ZNF962P (GeneID 729501) | 3 |
| -0.634 | LINC02591 (GeneID 388692) | 1 |
| -0.497 | LINC02591 (GeneID 388692) | 2 |
| -0.104 | LINC02591 (GeneID 388692) | 3 |
| 0.0564 | PPFIA2 (GeneID 8499) | 1 |
| 0.82 | PPFIA2 (GeneID 8499) | 2 |
| 0.38 | PPFIA2 (GeneID 8499) | 3 |
| 0.219 | SLC6A9 (GeneID 6536) | 1 |
| -0.887 | SLC6A9 (GeneID 6536) | 2 |
| -0.887 | SLC6A9 (GeneID 6536) | 3 |
| -0.592 | LYPD5 (GeneID 284348) | 1 |
| 3.65 | LYPD5 (GeneID 284348) | 2 |
| 2.11 | LYPD5 (GeneID 284348) | 3 |
| -1.65 | SLC35D2 (GeneID 11046) | 1 |
| 4.54 | SLC35D2 (GeneID 11046) | 2 |
| -0.32 | SLC35D2 (GeneID 11046) | 3 |
| 0.137 | CLPP (GeneID 8192) | 1 |
| -0.968 | CLPP (GeneID 8192) | 2 |
| -0.975 | CLPP (GeneID 8192) | 3 |
| 0.307 | CCDC144NL (GeneID 339184) | 1 |
| -0.774 | CCDC144NL (GeneID 339184) | 2 |
| -0.992 | CCDC144NL (GeneID 339184) | 3 |
| -0.822 | SOCS6 (GeneID 9306) | 1 |
| -0.554 | SOCS6 (GeneID 9306) | 2 |
| -0.341 | SOCS6 (GeneID 9306) | 3 |
| 5.61 (active) | BDP1 (GeneID 55814) | 1 |
| 3.03 | BDP1 (GeneID 55814) | 2 |
| 4.27 | BDP1 (GeneID 55814) | 3 |
| 3.72 | ASIP (GeneID 434) | 1 |
| -0.102 | ASIP (GeneID 434) | 2 |
| 0.27 | ASIP (GeneID 434) | 3 |
| -0.127 | TOMM40L (GeneID 84134) | 1 |
| -1.11 | TOMM40L (GeneID 84134) | 2 |
| 2.96 | TOMM40L (GeneID 84134) | 3 |
